Measurements from patent US12247320B2, “Multivalent glycopeptides that tightly bind to carbohydrate-binding monoclonal antibody family PGT128” (BRANDEIS UNIVERSITY, priority 2018, dated 2025).
Some results were stated once for a whole list of compounds, not compound by compound.

Molecular target: PGT128
Assay: Binding of radiolabeled, cyclized, glycosylated peptides to PGT128 (Protein G bead capture, scintillation counting)
Conditions: cyclized sequences, glycosylation not complete, before PGT128 affinity purification; read-out: binding in preliminary screens
Procedure: Radioactive Peptides. For binding analysis, translation (50 μL) was carried out in the presence of PDF/MAP and ^3H-histidine for radiolabeling. The crude peptides were purified by Ni-NTA agarose or, if the sequence contained two cysteine residues, was cyclized while captured on the Ni-NTA resin. The peptide eluents were combined and dialyzed as follows. To the combined eluents was added a solution of Triton X-100 in water for a final concentration of 0.1%. Then, the peptides were dialyzed against 0.1% (v/v) Triton X-100 using a Slide-A-Lyzer™ MINI device (0.1 mL capacity, 3.5 kDa MWCO) (ThermoScientific) at room temperature overnight. The dialyzed peptides were retrieved from the devices, transferring to 0.5 mL centrifuge tubes. The peptide solutions were concentrated to dryness by speedvac for the click reaction.
Sequences were screened for their binding to PGT128 as follows. […] The beads were resuspended in 40 μL of denaturing elute buffer, vortexed, and directly placed into a vial with liquid scintillation cocktail for radioactivity measurements, though it was not included in calculations of fraction bound. […] The tube in which the antibody and peptides were incubated were also measured by LSC, but not included in calculations of fraction bound. […]

Sequence	Kd
MAHYSXNHXRHPLYPSVNHRXSYPRIGLLSRIGDIRSASCXLRCFRXRST [91-8cy]	33 to 35 nM
XYPNTLNNVYQKCNKYNVIGDIRXARCXHXEHFSSQDQPKSKHKRRYKGF [91-12cy]	33 to 35 nM
